Experimental data as given in US10857167B2, “Use of oligosaccharide compositions to enhance weight gain” (Children's Hospital Medical Center, priority 2015, dated 2020).
Further values from the same series stand in other lists.

Tested on: distal small bowel gene expression
Experiment: RNA sequencing / transcriptional analysis of small bowel 56 days after ICR (2′-FL signature response)
Format: in vivo, mouse
Excerpt: Luminal small bowel contents were expressed into AllProtect Tissue Reagent (Qiagen Inc, CA). Bacterial DNA was extracted using the AllPrep DNA/RNA Mini Kit (Qiagen Inc, CA), according to kit instructions and prior to sequencing (described below). Small bowel tissue samples for RNA were placed into RNA Later (Life Technologies, NY). RNA extraction was accomplished following Qiagen RNeasy Plus Kit instruction (Qiagen Inc, CA). All nucleic acid samples were then stored at -80 Celsius until sequenced (described below). Transcriptional analysis was carried out on resected and harvested small bowel samples obtained from operated mice taken to 8 weeks. Murine RNA sequencing libraries were prepared from approximately 1.5 μg RNA using the TruSeq RNA Sample Preparation Kit (Illumina, Calif.) and sequenced using the HiSeq 2000 Sequencing System (Illumina, Calif.) with single-end 50 bp reads. Following removal of primers and barcodes, sequences were aligned to the mm10 genome using reference annotations from UCSC (Rosenbloom et al. (2015) Nucleic acids research 43: […]-681) (n=36,186 entities). Aligned reads were quantified and used to compute reads per kilobase per million mapped reads (RPKM); raw counts were then normalized using the DESeq algorithm and each harvested sample was baselined to its own resected sample. A filter was applied to the data, requiring at least three reads in all samples of at least one of the four experimental conditions (n=14,489 entities). The data discussed in this publication have been deposited in NCBI's Gene Expression Omnibus and are accessible through NCBI Gene Expression Omnibus (GEO) Series accession number GSE72590. Edgar et al. (2002) Nucleic acids research 30: 207-210. In order to characterize the impact of 2'-FL supplementation while accounting for the effect of ileoecal resection, a t-test was applied between resected and harvested samples within control and experimental animals. Significance was set at a p-value of ≤0.05 and a fold change of 3, which generated 2,576 differentially regulated entities across two comparisons. Gene set unions and intersections of the control and experimental gene sets were identified through Venn diagrams. From the master list, the gene list specific to animals supplemented with 2'-FL were removed in order to identify genes differentially regulated only by ICR (n=546 entities); this gene set characterizes the adaptive response. Further, the 2'-FL response (n=2,030 entities) was identified by removing the adaptive response signature described above from the master list, leaving only genes regulated by 2'-FL supplementation after ICR which were not found in the non-supplemented adaptive response. Heatmaps were generated using hierarchical clustering with the Pearson's Centered distance metric and the average linkage rule; both entities and samples were clustered. All genomic analyses described above were performed in Strand NGS (Strand Life Sciences, CA). Gene list functional enrichment was initially discovered using ToppFun, a member of the ToppGene Suite. Chen et al. (2009) Nucleic acids research 37: […]-311. No statistical correction was selected. Gene lists were further analyzed using ClueGO, a plugin for Cytoscape designed to decipher functionally grouped gene ontology and pathway annotation networks. Bindea et al. (2009) Bioinformatics 25: 1091-1093. At the time of data analysis, the annotation files were updated from sources to Jan. 1, 2015. “GO Term Fusion” was enabled to manage ontologic term redundancy and network specificity was set to medium. Results were restricted to pathways with p≤0.05 using Benjamini-Hochberg correction and Kappa scoring was set to 0.4. Biocyc annotations were assigned a rectangle, gene ontology biologic processes were assigned an ellipse, and […] annotations were assigned a diamond shape. No meaning was assigned to size or color. […]

## C[C@@H]1O[C@@H](O[C@H]2[C@H](O[C@H]3[C@H](O)[C@@H](O)C(O)O[C@@H]3CO)O[C@H](CO)[C@H](O)[C@@H]2O)[C@@H](O)[C@H](O)[C@@H]1O (stereo partly shown) [2′-FL, 2′-fucosyllactose]
LOC100503676
  Fold Change (Pre- to Post-op): 3.792
LOC100505179
  Fold Change (Pre- to Post-op): 3.126
LOC101055731
  Fold Change (Pre- to Post-op): 4.557
Lage3
  Fold Change (Pre- to Post-op): 3.426
Lamtor1
  Fold Change (Pre- to Post-op): 3.093
Lamtor5
  Fold Change (Pre- to Post-op): 3.493
Leap2
  Fold Change (Pre- to Post-op): 6.03
Lekr1
  Fold Change (Pre- to Post-op): 3.078
Lrp2bp
  Fold Change (Pre- to Post-op): 4.67
Lrrc48
  Fold Change (Pre- to Post-op): 4.634
Lrrc51
  Fold Change (Pre- to Post-op): 3.949
Lsm1
  Fold Change (Pre- to Post-op): 3.415
Lsm3
  Fold Change (Pre- to Post-op): 3.39
Lsm4
  Fold Change (Pre- to Post-op): 3.12
Lsm5
  Fold Change (Pre- to Post-op): 3.069
Lsm7
  Fold Change (Pre- to Post-op): 4.528
Lsmd1
  Fold Change (Pre- to Post-op): 4.081
Ly6g6f
  Fold Change (Pre- to Post-op): 3.186
Ly6g6d
  Fold Change (Pre- to Post-op): 7.662
Lypla1
  Fold Change (Pre- to Post-op): 3.048
Lyrm2
  Fold Change (Pre- to Post-op): 3.343
Lyrm5
  Fold Change (Pre- to Post-op): 3.146
Mal2
  Fold Change (Pre- to Post-op): 3.012
Map2k3os
  Fold Change (Pre- to Post-op): 3.902
Map3k5
  Fold Change (Pre- to Post-op): −3.002
Map3k12
  Fold Change (Pre- to Post-op): 16.21
Marcksl1-ps4
  Fold Change (Pre- to Post-op): 4.069
Mcfd2
  Fold Change (Pre- to Post-op): 3.275
Mcpt1
  Fold Change (Pre- to Post-op): 7.146
Mcpt2
  Fold Change (Pre- to Post-op): 13.42
Mea1
  Fold Change (Pre- to Post-op): 3.052
Med21
  Fold Change (Pre- to Post-op): 5.251
Med31
  Fold Change (Pre- to Post-op): 3.848
Medag
  Fold Change (Pre- to Post-op): 4.262
Mei1
  Fold Change (Pre- to Post-op): 3.993
Mettl23
  Fold Change (Pre- to Post-op): 3.161
Mff
  Fold Change (Pre- to Post-op): 3.004
Mgst1
  Fold Change (Pre- to Post-op): 3.507
Mgst2
  Fold Change (Pre- to Post-op): 5.061
Mgst3
  Fold Change (Pre- to Post-op): 4.963
Mien1
  Fold Change (Pre- to Post-op): 4.918
Minos1
  Fold Change (Pre- to Post-op): 3.865
Mkks
  Fold Change (Pre- to Post-op): 3.28
Mmp12
  Fold Change (Pre- to Post-op): 5.474
Mmp23
  Fold Change (Pre- to Post-op): 3.213
Mob4
  Fold Change (Pre- to Post-op): 3.208
Mocs2
  Fold Change (Pre- to Post-op): 3.43
Mpc1
  Fold Change (Pre- to Post-op): 3.802
Mrp63
  Fold Change (Pre- to Post-op): 3.647
Mrpl11
  Fold Change (Pre- to Post-op): 4.084
Mrpl12
  Fold Change (Pre- to Post-op): 4.084
Mrpl13
  Fold Change (Pre- to Post-op): 3.376
Mrpl14
  Fold Change (Pre- to Post-op): 5.005
Mrpl24
  Fold Change (Pre- to Post-op): 3.479
Mrpl27
  Fold Change (Pre- to Post-op): 4.04
Mrpl28
  Fold Change (Pre- to Post-op): 3.389
Mrpl33
  Fold Change (Pre- to Post-op): 5.69
Mrpl34
  Fold Change (Pre- to Post-op): 3.007
Mrpl41
  Fold Change (Pre- to Post-op): 3.954
Mrpl46
  Fold Change (Pre- to Post-op): 3.56
Mrpl54
  Fold Change (Pre- to Post-op): 5.196
Mrps16
  Fold Change (Pre- to Post-op): 3.74
Mrps18c
  Fold Change (Pre- to Post-op): 3.662
Mrps23
  Fold Change (Pre- to Post-op): 3.078
Mrps24
  Fold Change (Pre- to Post-op): 3.389
Mrps28
  Fold Change (Pre- to Post-op): 3.249
Mrps33
  Fold Change (Pre- to Post-op): 4.516
Mrps36
  Fold Change (Pre- to Post-op): 3.539
Mterfd3
  Fold Change (Pre- to Post-op): 3.55
Mtfr1
  Fold Change (Pre- to Post-op): 3.153
Mvd
  Fold Change (Pre- to Post-op): 4.11
Mvk
  Fold Change (Pre- to Post-op): 4.061
Mycbpap
  Fold Change (Pre- to Post-op): 3.709
Myeov2
  Fold Change (Pre- to Post-op): 5.372
Myh10
  Fold Change (Pre- to Post-op): −3.009
Myl4
  Fold Change (Pre- to Post-op): 3.522
Myl6
  Fold Change (Pre- to Post-op): 3.193
Myl7
  Fold Change (Pre- to Post-op): 3.733
Mzb1
  Fold Change (Pre- to Post-op): 3.192
Mzt1
  Fold Change (Pre- to Post-op): 3.149
Nat2
  Fold Change (Pre- to Post-op): 3.508
Nat8
  Fold Change (Pre- to Post-op): 3.352
Ncoa3
  Fold Change (Pre- to Post-op): −3.006
Ndufa1
  Fold Change (Pre- to Post-op): 3.64
Ndufa2
  Fold Change (Pre- to Post-op): 3.818
Ndufa4
  Fold Change (Pre- to Post-op): 4.529
Ndufa5
  Fold Change (Pre- to Post-op): 3.233
Ndufa6
  Fold Change (Pre- to Post-op): 3.05
Ndufa11
  Fold Change (Pre- to Post-op): 3.515
Ndufab1
  Fold Change (Pre- to Post-op): 3.404
Ndufaf2
  Fold Change (Pre- to Post-op): 3.197
Ndufaf6
  Fold Change (Pre- to Post-op): 3.393
Ndufb2
  Fold Change (Pre- to Post-op): 5.525
Ndufb3
  Fold Change (Pre- to Post-op): 3.563
Ndufb4
  Fold Change (Pre- to Post-op): 5.083
Ndufb6
  Fold Change (Pre- to Post-op): 5.037
Ndufb8
  Fold Change (Pre- to Post-op): 4.7
Ndufb9
  Fold Change (Pre- to Post-op): 4.496
Ndufb10
  Fold Change (Pre- to Post-op): 3.019
Ndufc1
  Fold Change (Pre- to Post-op): 3.112
Ndufs4
  Fold Change (Pre- to Post-op): 3.807
Ndufs5
  Fold Change (Pre- to Post-op): 3.915
Ndufs8
  Fold Change (Pre- to Post-op): 3.089
Ndufv2
  Fold Change (Pre- to Post-op): 4.047
Nhp2
  Fold Change (Pre- to Post-op): 3.093
Nkain4
  Fold Change (Pre- to Post-op): 7.288
Nme2
  Fold Change (Pre- to Post-op): 4.067
Nme3
  Fold Change (Pre- to Post-op): 3.018
Nqo1
  Fold Change (Pre- to Post-op): 5.83
Nr1h3
  Fold Change (Pre- to Post-op): 3.296
Nr1i3
  Fold Change (Pre- to Post-op): 3.328
Nt5c
  Fold Change (Pre- to Post-op): 3.363
Nubp1
  Fold Change (Pre- to Post-op): 3.093
Nudcd2
  Fold Change (Pre- to Post-op): 3.394
Nudt5
  Fold Change (Pre- to Post-op): 4.278
Nudt7
  Fold Change (Pre- to Post-op): 4.072
Nudt8
  Fold Change (Pre- to Post-op): 3.63
Nudt14
  Fold Change (Pre- to Post-op): 4.061
Oas1c
  Fold Change (Pre- to Post-op): 3.761
Ociad2
  Fold Change (Pre- to Post-op): 3.98
Oxld1
  Fold Change (Pre- to Post-op): 3.743
